PMC4442312 (eLife, 2015)
No constants are given. Whether binding was seen depends on the method and setting. Binding seen in cells or lysates may run through a third protein. Some entries that bind do so weakly or less than the wild type. Sequences can lack the tags named with a protein.

Sequences of proteins named here, by UniProt entry; tags and fusion partners are left off.
UniProt Q96KQ7: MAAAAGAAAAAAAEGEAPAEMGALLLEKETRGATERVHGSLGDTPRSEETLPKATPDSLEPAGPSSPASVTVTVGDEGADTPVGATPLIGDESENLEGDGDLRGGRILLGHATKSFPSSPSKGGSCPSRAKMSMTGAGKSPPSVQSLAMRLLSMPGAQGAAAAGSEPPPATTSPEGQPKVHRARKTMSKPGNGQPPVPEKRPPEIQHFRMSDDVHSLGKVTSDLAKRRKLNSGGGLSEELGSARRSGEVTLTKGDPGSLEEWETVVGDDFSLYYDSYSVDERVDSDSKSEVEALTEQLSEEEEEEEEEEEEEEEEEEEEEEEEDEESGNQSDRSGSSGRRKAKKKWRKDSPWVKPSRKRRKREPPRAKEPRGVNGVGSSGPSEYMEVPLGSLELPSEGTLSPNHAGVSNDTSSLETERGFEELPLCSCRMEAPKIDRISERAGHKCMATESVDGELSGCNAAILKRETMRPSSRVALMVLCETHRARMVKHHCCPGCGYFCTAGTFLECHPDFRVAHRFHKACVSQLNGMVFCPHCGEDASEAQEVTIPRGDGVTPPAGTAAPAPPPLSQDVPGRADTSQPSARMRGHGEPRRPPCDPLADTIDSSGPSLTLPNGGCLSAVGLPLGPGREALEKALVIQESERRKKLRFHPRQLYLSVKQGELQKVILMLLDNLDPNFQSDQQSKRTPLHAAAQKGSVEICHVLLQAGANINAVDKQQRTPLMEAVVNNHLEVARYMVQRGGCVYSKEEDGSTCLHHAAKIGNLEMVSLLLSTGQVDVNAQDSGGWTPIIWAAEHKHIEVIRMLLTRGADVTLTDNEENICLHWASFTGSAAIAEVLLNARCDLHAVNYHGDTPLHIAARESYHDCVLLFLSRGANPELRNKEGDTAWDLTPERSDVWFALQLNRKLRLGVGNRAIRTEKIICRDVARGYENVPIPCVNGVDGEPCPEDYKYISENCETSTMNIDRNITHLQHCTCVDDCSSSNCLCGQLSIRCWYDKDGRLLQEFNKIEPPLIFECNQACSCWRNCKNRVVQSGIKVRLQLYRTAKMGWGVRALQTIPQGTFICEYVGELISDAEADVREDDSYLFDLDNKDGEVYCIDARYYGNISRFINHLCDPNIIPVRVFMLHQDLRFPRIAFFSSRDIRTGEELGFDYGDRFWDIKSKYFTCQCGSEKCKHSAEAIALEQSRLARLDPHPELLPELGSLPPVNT

Molecular target: T1, HA-ORC1 (UniProt Q13415)
T1 sequence: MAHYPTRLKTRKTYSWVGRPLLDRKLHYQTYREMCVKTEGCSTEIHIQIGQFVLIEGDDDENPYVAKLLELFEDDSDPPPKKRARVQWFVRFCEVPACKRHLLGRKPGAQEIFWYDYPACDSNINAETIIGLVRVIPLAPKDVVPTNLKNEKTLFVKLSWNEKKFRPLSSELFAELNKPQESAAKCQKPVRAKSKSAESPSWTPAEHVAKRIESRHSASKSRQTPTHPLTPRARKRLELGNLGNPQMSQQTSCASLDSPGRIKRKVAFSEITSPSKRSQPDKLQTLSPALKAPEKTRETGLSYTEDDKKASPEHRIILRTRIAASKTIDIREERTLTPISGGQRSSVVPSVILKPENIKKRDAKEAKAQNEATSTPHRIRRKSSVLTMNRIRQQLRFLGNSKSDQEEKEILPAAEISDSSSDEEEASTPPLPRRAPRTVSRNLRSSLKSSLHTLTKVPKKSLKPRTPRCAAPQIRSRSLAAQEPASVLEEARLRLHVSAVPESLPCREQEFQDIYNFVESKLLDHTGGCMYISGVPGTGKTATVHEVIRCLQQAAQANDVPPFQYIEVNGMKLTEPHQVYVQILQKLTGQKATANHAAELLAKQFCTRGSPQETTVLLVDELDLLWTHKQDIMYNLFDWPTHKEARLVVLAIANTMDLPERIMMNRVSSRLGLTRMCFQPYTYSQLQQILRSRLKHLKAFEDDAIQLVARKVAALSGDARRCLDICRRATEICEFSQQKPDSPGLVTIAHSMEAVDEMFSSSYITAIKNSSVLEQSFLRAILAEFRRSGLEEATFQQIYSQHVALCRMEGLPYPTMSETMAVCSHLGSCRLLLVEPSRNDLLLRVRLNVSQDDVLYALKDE
Assay: co-IP; sequential IP from triply transfected U2OS: HA IP, HA peptide elution, then T7 antibody IP; immunoblot

binding: binds
Substance: Flag-G9a (from UniProt Q96KQ7 1-1210) (enzyme)
